Reference: PubChem BioAssay AID686943 (Drosophila RNAi Screening Center, 2013)

- Aim: 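Knockdowns that increase or decrease active ERK after insulin receptor stimulation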 (primary screen)
- Cells: Drosophila S2R+ haemocyte-like cells expressing YFP-tagged ERK (Rolled)
- Knock-down reagent: long dsRNA against Drosophila genes
- Treatment: insulin stimulation versus unstimulated cells; dose and duration not given
- Read-out: 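Per-plate z-scores of phospho-ERK immunostaining normalised to YFP-tagged ERK, measured with and without insulin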
- Scale: replicate 1, z-score of dpERK with insulin: higher = more active ERK per ERK-YFP after insulin
In all, the deposit lists about 23,000 reagents; shown is an unselected part of those with a known target gene and a result. 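Extra replicates exist only for a retested subset of genes; insulin dose and duration not given; both raised and lowered dpERK matter.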 Further read-outs or replicates are left out here. The record does not give: the amount of reagent, the time to read-out.

Which result is listed for Mdh1 [DRSC02846]?
replicate 1, z-score of dpERK with insulin: 0.78

With Ncoa6 [DRSC02353], what was measured?
replicate 1, z-score of dpERK with insulin: -7.48

What did the screen give for mRpL20 [DRSC09828]?
replicate 1, z-score of dpERK with insulin: -0.37

With Piezo [DRSC03092], how do the results read?
replicate 1, z-score of dpERK with insulin: 0.34

For Piezo [DRSC03391], how do the results read?
replicate 1, z-score of dpERK with insulin: 0.19

With Rab30 [DRSC03137], what was measured?
replicate 1, z-score of dpERK with insulin: 0.82

How did the screen score CG7557 [DRSC10878]?
replicate 1, z-score of dpERK with insulin: 0.28

For CG10026 [DRSC02010], how do the results read?
replicate 1, z-score of dpERK with insulin: 2.09

What is on record for resilin [DRSC05627]?
replicate 1, z-score of dpERK with insulin: 0.3

What is on record for resilin [DRSC06595]?
replicate 1, z-score of dpERK with insulin: 0.56

What is on record for CG1698 [DRSC06640]?
replicate 1, z-score of dpERK with insulin: -0.24

How did the screen score hlk [DRSC05021]?
replicate 1, z-score of dpERK with insulin: 1

For hlk [DRSC05022], what does the deposit list?
replicate 1, z-score of dpERK with insulin: 0.04

Which result is listed for CG6983 [DRSC10757]?
replicate 1, z-score of dpERK with insulin: -0.2

How did the screen score CG14891 [DRSC15013]?
replicate 1, z-score of dpERK with insulin: -0.12

With CG6044 [DRSC04522], what was measured?
replicate 1, z-score of dpERK with insulin: -0.04

With vig2 [DRSC14402], what was measured?
replicate 1, z-score of dpERK with insulin: -0.11

With CG10801 [DRSC17761], what does the deposit list?
replicate 1, z-score of dpERK with insulin: -0.8

How did the screen score CG8813 [DRSC00706]?
replicate 1, z-score of dpERK with insulin: -0.75

How did the screen score Jon99Fii [DRSC15430]?
replicate 1, z-score of dpERK with insulin: 0.13

With CG13544 [DRSC04186], what was measured?
replicate 1, z-score of dpERK with insulin: 0.45

No new results follow: 2 of the entries above.
CG8813 [DRSC00706]: replicate 1, z-score of dpERK with insulin = -0.75
Jon99Fii [DRSC15430]: replicate 1, z-score of dpERK with insulin = 0.13
